# The list shows a part of the results. Repeats are few or missing, and single values can be far off.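 The apoptosis fraction was the count of cleaved-PARP antibody-stained nuclei relative to all DNA-stained nuclei, imaged in 1,536-well plates. Screening doses were set so most cells survived, and baseline and induced cleaved-PARP levels vary greatly across cell lines.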
# What was measured:
# Experiment in all cases: cleaved PARP positive nuclei fraction relative to DMSO control; melanoma cells; higher = more apoptosis
# Conditions in all cases: library dose: low library concentration; 72 h
# [1] = system: CBRC034 (line from a melanoma biopsy)
# [2] = system: COLO792
# [3] = system: COLO800
# [4] = system: COLO829
# [5] = system: G361
# [6] = system: IPC-298
# [7] = system: IST-MEL1
# [8] = system: LB2518-MEL
# [9] = system: LOXIMVI
# [10] = system: MEL-HO
SMILES,cleaved PARP positive nuclei fraction [1] [%],cleaved PARP positive nuclei fraction [2] [%],cleaved PARP positive nuclei fraction [3] [%],cleaved PARP positive nuclei fraction [4] [%],cleaved PARP positive nuclei fraction [5] [%],cleaved PARP positive nuclei fraction [6] [%],cleaved PARP positive nuclei fraction [7] [%],cleaved PARP positive nuclei fraction [8] [%],cleaved PARP positive nuclei fraction [9] [%],cleaved PARP positive nuclei fraction [10] [%]
"C[C@]1(O)C[C@@H](c2nc(-c3ccc4ccc(-c5ccccc5)nc4c3)c3c(N)nccn32)C1 + COCC[n+]1c2c(n(Cc3cnccn3)c1C)C(=O)c1ccccc1C2=O [YM155] (first compound 0.4 µM, partner dose 0.0004 µM)",110,167,102,31.9,110,90.7,86.8,358,71.2,82
"COc1ccc(C2=N[C@@H](c3ccc(Cl)cc3)[C@@H](c3ccc(Cl)cc3)N2C(=O)N2CCNC(=O)C2)c(OC(C)C)c1 [Nutlin-3] + Cc1cc(Nc2cc(N3CCN(C)CC3)nc(/C=C/c3ccccc3)n2)n[nH]1 [ENMD2076] (first compound 0.1 µM, partner dose 0.04 µM)",97.9,51.2,132,85.7,92.6,285,67.9,63.9,190,145
"CC(=O)O[C@@]12CO[C@@H]1C[C@H](O)[C@@]1(C)C(=O)[C@H](O)C3=C(C)[C@@H](OC(=O)[C@H](O)[C@@H](NC(=O)OC(C)(C)C)c4ccccc4)C[C@@](O)([C@@H](OC(=O)c4ccccc4)[C@H]21)C3(C)C [Docetaxel] + Cc1cc(Nc2cc(N3CCN(C)CC3)nc(/C=C/c3ccccc3)n2)n[nH]1 [ENMD2076] (first compound 0.0001 µM, partner dose 0.04 µM)",331,423,254,110,450,120,112,188,240,173

# From the supplement of paper PMC4604168 (melanoma cell lines)
